# In the supplement of paper PMC8104966:
# The list shows a part of the results. Repeats in this data set agree poorly, so a single value says little.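 Fusion between ACE2-bearing and full-length-spike-bearing U2OS cells was measured by imaging as the percentage of nuclei with both cell types' fluorescent markers. An inhibitory hit is a non-toxic compound whose fusion z-score is below -3, more than three standard deviations beneath the plate's DMSO wells.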
# Test system: U2OS ACE2 x SARS-CoV-2 spike co-culture
# Test: cell-cell fusion (fraction fused) z-score vs plate DMSO control; higher = more fusion
# Details: 30 µM; 5 h; toxicity class: non-toxic, passed QC
row,SMILES,cell-cell fusion (z-score)
1,CC(C(=O)O)c1ccc2c(c1)[nH]c1ccc(Cl)cc12 (stereo not given),inactive: -0.186
2,CC1/C(=N/O)C[C@@H]2C[C@H]1C2(C)C (stereo not given in full),inactive: 2
3,CC(=O)Oc1cccc(O)c1,inactive: 3.39
4,N[C@H](CO)Cc1ccccc1,inactive: 3.48
5,Cc1cc(O)c2c(c1)C(=O)c1cc(O)cc(O)c1C2=O,inactive: 2.68
6,CC(=O)O.N=C(N)N/N=C/c1c(Cl)cccc1Cl [Guanabenz Acetate],inactive: 0.092
7,CN(C)C(=O)N[C@H]1CC[C@H](CCN2CCN(c3cccc(Cl)c3Cl)CC2)CC1 [Cariprazine],inactive: 1.05
8,COc1ccc(CCC(=O)c2c(O)cc(O[C@@H]3O[C@H](CO)C(O)[C@H](O)C3O[C@@H]3O[C@@H](C)[C@H](O)[C@@H](O)[C@H]3O)cc2O)cc1O (stereo not given in full),inactive: 2.54
9,O=C(Nc1ncc([N+](=O)[O-])s1)c1ccc([N+](=O)[O-])c(Cl)c1 [NFκB Activation Inhibitor III],inactive: 2.45
10,COc1ccccc1N1CCN(CCCCNC(=O)c2ccc3ccccc3c2)CC1,inactive: 1.65
11,CC(N)Cc1c[nH]c2ccc(O)cc12.O=C(O)/C=C\C(=O)O (stereo not drawn) [alpha-Methyl-5-hydroxytryptamine maleate],inactive: 2.6
12,O=C1NC(=O)c2c1c(-c1ccccc1)cc1[nH]c3ccc(O)cc3c21,active: -5.17
13,Cc1cc(=O)oc2c(O)c(O)ccc12,inactive: 1.29
14,NC[C@H](O)c1ccc(O)c(O)c1.O=C(O)C(O)C(O)C(=O)O [L(-)-Norepinephrine bitartrate],inactive: -0.315
15,COc1ccc(Cc2cnc(N)nc2N)cc1OC,inactive: 1.67
16,COCCCOc1ccnc(CS(=O)c2nc3ccccc3[n-]2)c1C.[Na+] (stereo not given),inactive: 4.44
17,CC(C)(C)NCC(O)c1ccc(O)c(CO)c1.CC(C)(C)NCC(O)c1ccc(O)c(CO)c1.O=S(=O)(O)O (stereo not given) [Albuterol hemisulfate],active: -3.3
18,N#C/C(=C\c1cn(-c2ccccc2)c2ccccc12)C(=O)O,inactive: 2.82
19,COc1ncnc(NS(=O)(=O)c2ccc(N)cc2)c1OC,inactive: 1.2
20,CC(C)(C)N.CCC[C@H](N[C@@H](C)C(=O)N1[C@H](C(=O)O)C[C@@H]2CCCC[C@@H]21)C(=O)OCC [Perindopril erbumine],inactive: 0.861
21,CC(C)=CCC/C(C)=C/CC/C(C)=C/CO,inactive: 1.78
22,Br.Oc1ccc(C2CNCCc3c2cc(O)c(O)c3Cl)cc1 (stereo not given) [Fenoldopam bromide],active: -4.41
23,COc1ccc(Br)cc1S(=O)(=O)NC(=O)/C=C/c1ccccc1Cc1ccc2ccccc2c1,inactive: 0.129
24,CC(=O)[C@H]1CCC2C3C[C@H](C)C4=CC(=O)CC[C@]4(C)C3[C@@H](O)C[C@@]21C (stereo not given in full),inactive: -0.719

# Shown with bars between the fields: entries from further up
row | SMILES | cell-cell fusion (z-score)
1 | CC(C(=O)O)c1ccc2c(c1)[nH]c1ccc(Cl)cc12 (stereo not given) | inactive: -0.186
2 | CC1/C(=N/O)C[C@@H]2C[C@H]1C2(C)C (stereo not given in full) | inactive: 2
4 | N[C@H](CO)Cc1ccccc1 | inactive: 3.48
7 | CN(C)C(=O)N[C@H]1CC[C@H](CCN2CCN(c3cccc(Cl)c3Cl)CC2)CC1 [Cariprazine] | inactive: 1.05
10 | COc1ccccc1N1CCN(CCCCNC(=O)c2ccc3ccccc3c2)CC1 | inactive: 1.65
12 | O=C1NC(=O)c2c1c(-c1ccccc1)cc1[nH]c3ccc(O)cc3c21 | active: -5.17
13 | Cc1cc(=O)oc2c(O)c(O)ccc12 | inactive: 1.29
14 | NC[C@H](O)c1ccc(O)c(O)c1.O=C(O)C(O)C(O)C(=O)O [L(-)-Norepinephrine bitartrate] | inactive: -0.315
15 | COc1ccc(Cc2cnc(N)nc2N)cc1OC | inactive: 1.67
17 | CC(C)(C)NCC(O)c1ccc(O)c(CO)c1.CC(C)(C)NCC(O)c1ccc(O)c(CO)c1.O=S(=O)(O)O (stereo not given) [Albuterol hemisulfate] | active: -3.3
19 | COc1ncnc(NS(=O)(=O)c2ccc(N)cc2)c1OC | inactive: 1.2
20 | CC(C)(C)N.CCC[C@H](N[C@@H](C)C(=O)N1[C@H](C(=O)O)C[C@@H]2CCCC[C@@H]21)C(=O)OCC [Perindopril erbumine] | inactive: 0.861
22 | Br.Oc1ccc(C2CNCCc3c2cc(O)c(O)c3Cl)cc1 (stereo not given) [Fenoldopam bromide] | active: -4.41
24 | CC(=O)[C@H]1CCC2C3C[C@H](C)C4=CC(=O)CC[C@]4(C)C3[C@@H](O)C[C@@]21C (stereo not given in full) | inactive: -0.719

# (next part)

row,SMILES,cell-cell fusion (z-score)
1,Cn1c(Cn2ccc(C(F)(F)F)c(Oc3cc(Cl)cc(C#N)c3)c2=O)n[nH]c1=O [Doravirine],inactive: 0.883
2,O=C(O)C1CC(C2CCCCN2)CN2CCCCC12 (stereo not given),inactive: 0.961
3,C=C1c2c(Cl)ccc(O)c2C(=O)C2=C(O)[C@]3(O)C(=O)C(C(N)=O)=C(O)[C@@H](N(C)C)[C@@H]3[C@@H](O)[C@H]12.O=C(O)c1cc(S(=O)(=O)O)ccc1O,inactive: 2.63
4,C[C@@H]1CC[C@]2(C(=O)O)CC[C@]3(C)C(=CCC4[C@@]5(C)CC[C@H](O)C(C)(C)C5CC[C@]43C)C2[C@H]1C (stereo not given in full),inactive: 1.73
5,CS(=O)(=O)O.O=C(Nc1cccc(Cl)c1)Nc1ncc(CCNc2ncnc3ccsc23)s1,active: -4.93
6,Cl.Clc1ccccc1CN1CCc2sccc2C1 [Ticlopidine hydrochloride],inactive: 3.3
7,"C=CCn1c(=O)c2c(nc(-c3ccc(S(=O)(=O)O)cc3)n2C)n(C)c1=O [1-Allyl-3,7-dimethyl-8-p-sulfophenylxanthine]",inactive: 3.42
8,CC(O)(P(=O)(O)O)P(=O)(O)O [Etidronate],inactive: 2.55
9,Cl.Fc1ccc(CN(C2=NCCN2)c2c(Cl)cccc2Cl)cc1 [IMID-4F hydrochloride],inactive: 3.87
10,Cc1nc(-c2ccc(OCC(C)C)c(C#N)c2)sc1C(=O)O [Febuxostat (Uloric)],inactive: 1.7
11,COCC1=C(C(=O)OC(C)OC(=O)OC(C)C)N2C(=O)[C@@H](NC(=O)/C(=N\OC)c3csc(N)n3)[C@H]2SC1 (stereo not given in full) [Cefpodoxime proxetil],inactive: 1.19
12,CCc1cc(Nc2nccc(-c3c(-c4ccc(OC)c(C(=O)Nc5c(F)cccc5F)c4)nc4ccccn34)n2)c(OC)cc1N1CCC(N2CCN(S(C)(=O)=O)CC2)CC1,inactive: 2.11
13,C[C@]12C[C@H](O)[C@H]3[C@@H](CCC4=CC(=O)CC[C@@]43C)[C@@H]1CC[C@@H]2C(=O)CO [Corticosterone],inactive: 2.62
14,O=c1[nH]cnc2c1ncn2C1O[C@H](CO)[C@@H](O)[C@H]1O (stereo not given in full),inactive: 3.33
15,C[C@H]1C[C@@H]2[C@H]([C@@H](O)C[C@@]3(C)[C@H]2CC[C@]3(O)C(=O)CO)[C@@]2(C)C=CC(=O)C=C12 [Methylprednisolone],inactive: 2.19
16,CC(=O)N1CCN(c2ccc(OC[C@H]3CO[C@](Cn4ccnc4)(c4ccc(Cl)cc4Cl)O3)cc2)CC1 [Ketoconazole],inactive: 2.12
17,COc1ccc(-c2oc3ccccc3c(=O)c2OC)cc1,inactive: 1.55
18,COc1ccc([C@@H]2Sc3ccccc3N(CCN(C)C)C(=O)[C@@H]2OC(C)=O)cc1.Cl [Diltiazem hydrochloride],inactive: 1.99
19,CN1CCC(=C2c3ccccc3Sc3ccccc32)CC1.O=C(O)/C=C\C(=O)O,inactive: 1.11
20,CCCCc1oc2ccccc2c1C(=O)c1cc(I)c(OCCN(CC)CC)c(I)c1.Cl,inactive: 3.01
21,CC(C)NCC(O)c1cc(O)cc(O)c1.CC(C)NCC(O)c1cc(O)cc(O)c1.O=S(=O)(O)O (stereo not given) [Metaproterenol hemisulfate],inactive: -0.527
22,OC[C@H]1O[C@@H](n2cnc3c(NC4CCCC4)ncnc32)C(O)[C@H]1O (stereo not given in full) [N6-Cyclopentyladenosine],inactive: 1.56
23,COc1cc2c(c(OC)c1OC)-c1ccc(OC)c(=O)cc1[C@@H](NC(C)=O)CC2 [Colchicine],inactive: 0.421
24,CCCCn1c(=O)n(Cc2ccccc2F)c(=O)c2nc(Cc3ccc(NC(C)=O)cc3)[nH]c21 [cPEPCK inhibitor],inactive: 1.61

row,SMILES,cell-cell fusion (z-score)
1,O=C1NC(=O)C(c2ccccc2[N+](=O)[O-])=C1Nc1ccc(O)c(Cl)c1,inactive: 1.2
2,O=C(O)C(=O)CBr [3-Bromopyruvic acid],inactive: 1.68
3,COc1cc2c(cc1OC)-c1c(oc3cc(O)cc(O)c3c1=O)CO2,inactive: 1.86
4,NS(=O)(=O)c1cc2c(cc1Cl)NC(C1CC3C=CC1C3)NS2(=O)=O (stereo not given) [Cyclothiazide],inactive: 3.23
5,N#CCC(=O)NN,inactive: 1.21
6,C[C@@H]1O[C@@H](O[C@H]2[C@@H](Oc3cc(O)c4c(c3)O[C@H](c3ccc(O)cc3)CC4=O)O[C@H](CO)[C@@H](O)[C@@H]2O)[C@H](O)[C@H](O)[C@H]1O,inactive: 1.99
7,CCOC(=O)C1=C(C)NC(C)=C(C(=O)OC)C1c1cccc([N+](=O)[O-])c1 (stereo not given) [Nitrendipine],inactive: 3.69
8,NS(=O)(=O)c1cc(C2(O)NC(=O)c3ccccc32)ccc1Cl (stereo not given) [Chlortalidone],inactive: 1.99
9,CN(C)CCOC(=O)COc1ccc(Cl)cc1.Cl [Centrophenoxine hydrochloride],inactive: 2.53
10,CN(C)CCOC(=O)COc1ccc(Cl)cc1.Cl,inactive: 2.53
11,C#CCN(C)Cc1ccccc1 [Pargyline],inactive: 3.42
12,"C[N+]1(C)CCN(c2ccccc2)CC1.[I-] [1,1-Dimethyl-4-phenyl-piperazinium iodide]",inactive: 3.14
13,CC1=CC(=O)c2ccccc2C1=O,inactive: -0.974
14,c1ccc2c(Cc3c[nH]c4ccccc34)c[nH]c2c1,inactive: 1.7
15,C=C(C)C1CC=C(C)CC1 (stereo not given),inactive: 3.24
16,NCc1ccccc1CC(=O)N[C@@H]1C(=O)N2C(C(=O)O)=C(CSc3nnnn3CC(=O)O)CS[C@H]12 [Ceforanide],inactive: 1.54
17,Nc1ncnc2c1ncn2C1C[C@H](O)[C@@H](CO)O1 (stereo not given in full),inactive: 1.7
18,Br.Br.N=C(N)SCCc1c[nH]cn1 [Imetit dihydrobromide],inactive: 2.29
19,CC(C)NC[C@H](O)COc1ccc(CCOCC2CC2)cc1.Cl [Levobetaxolol HCl],inactive: 1.63
20,COC(=O)N(C)c1c(N)nc(-c2nn(Cc3ccccc3F)c3ncccc23)nc1N [Riociguat],inactive: 2.98
21,C=C(C)[C@@H]1CC[C@]2(CO)CC[C@]3(C)[C@H](CCC4[C@@]5(C)CC[C@H](O)C(C)(C)C5CC[C@]43C)C12 (stereo not given in full),inactive: 1.62
22,NC(=O)NC1NC(=O)NC1=O (stereo not given),inactive: 2.65
